# Some entries share one result that the patent states for a list of compounds.
# Test system: 2-O sulfatase
# Assay: desulfation of 2-O sulfated chondroitin disaccharides under extended and exhaustive conditions
# Format: biochemical, F. heparinum
# Conditions: 18 hour incubation at 30° C., 5 mM substrate, 5 μM enzyme
smiles,measurement,value
CC(=O)N[C@H]1C(O)O[C@H](COS(=O)(=O)O)[C@H](O)[C@@H]1O[C@@H]1OC(C(=O)O)=C[C@H](O)[C@H]1OS(=O)(=O)O (stereo partly shown) [ΔU2SGalNac.6S],desulfated at the 2-O position under exhaustive conditions,greater than 95%
